Here are results for two substances from PMC8593035.

Protein sequences, listed by entry. Tags and fused reporters are not part of them.
UniProt Q06609: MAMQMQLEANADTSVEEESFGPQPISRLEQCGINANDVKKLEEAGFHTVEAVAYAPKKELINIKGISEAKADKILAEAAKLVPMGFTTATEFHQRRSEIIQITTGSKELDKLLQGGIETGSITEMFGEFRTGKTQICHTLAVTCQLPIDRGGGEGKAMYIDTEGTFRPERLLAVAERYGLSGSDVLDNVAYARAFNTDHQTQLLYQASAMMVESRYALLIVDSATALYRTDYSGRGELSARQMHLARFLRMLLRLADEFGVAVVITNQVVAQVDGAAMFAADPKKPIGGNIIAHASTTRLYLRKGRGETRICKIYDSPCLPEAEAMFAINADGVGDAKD

No constants are given. Whether binding was seen depends on the method and setting. In cells and extracts the contact can be indirect. Some binding calls cover weakened binding; strength is not graded here.

Assay [1] has as its target T1, Nucleolar and spindle-associated protein 1 (endogenous) (human (endogenous in CLL cells)) (UniProt Q9BXS6).
T1 sequence: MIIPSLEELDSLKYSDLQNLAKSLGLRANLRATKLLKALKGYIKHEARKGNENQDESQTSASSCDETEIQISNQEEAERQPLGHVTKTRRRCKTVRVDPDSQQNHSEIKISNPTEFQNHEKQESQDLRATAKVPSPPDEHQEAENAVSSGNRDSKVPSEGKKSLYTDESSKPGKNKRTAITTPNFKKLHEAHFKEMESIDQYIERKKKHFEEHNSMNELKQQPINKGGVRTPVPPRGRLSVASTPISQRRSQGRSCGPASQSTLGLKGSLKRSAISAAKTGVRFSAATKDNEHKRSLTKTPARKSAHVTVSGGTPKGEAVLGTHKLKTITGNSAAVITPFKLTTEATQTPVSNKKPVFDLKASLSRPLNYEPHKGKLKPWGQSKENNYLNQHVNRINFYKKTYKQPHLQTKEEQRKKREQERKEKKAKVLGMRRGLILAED
As to the kind of experiment: co-IP; endogenous proteins; cell lysate in Co-IP lysis buffer, 1–3 ug primary antibody overnight at 4 °C, protein A/G PLUS agarose beads 2 h at 4 °C, washed in PBS 3 times, western blot. (In western blotting, separated proteins are transferred to a membrane and probed.)

Assay [2] has as its target T2, NUSAP1, full length (exogenous, from plasmid) (UniProt Q9BXS6).
T2 sequence: T1 sequence
As to the kind of experiment: co-IP; exogenous proteins from co-transfected plasmids; cell lysate in Co-IP lysis buffer, 1–3 ug primary antibody overnight at 4 °C, protein A/G PLUS agarose beads 2 h at 4 °C, washed in PBS 3 times, western blot.

On to “RAD51 (endogenous) (from UniProt Q06609 1-339)”, for which, in assay [1], the binding result is listed as “binds”. Turning to “RAD51, full length (exogenous, from plasmid) (from UniProt Q06609 1-339)”, in assay [2], the binding result is on record as “binds”.
